{"source": "PubChem BioAssay AID743121 (NCATS, 2013)", "test": "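Knock-downs that sensitise breast cancer cells to camptothecin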 (primary screen)", "system": "MDA-MB-231 cells, a human breast cancer line", "knock-down reagent": "single siRNA against human genes, 20 nM siRNA (0.8 pmol per well)", "time to read-out": "120 h (drug added 48 h after transfection, read 72 h later)", "treatment": "camptothecin 20 nM (about EC30) for 72 h; vehicle 0.1% DMSO in parallel plates", "measurement": "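Cell viability by ATP luminescence (CellTiter-Glo) as % of non-targeting siRNA wells, and the log2 ratio of viability without drug over viability with camptothecin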", "reading the numbers": "log2 vehicle/camptothecin viability: higher = stronger sensitisation to camptothecin", "active means": "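Each gene scored by redundant siRNA activity (RSA) over its individual siRNA ratios; a gene is called active at p < 0.001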", "note": "This is one part, drawn at random, of about 26,000 deposited reagents. Of all reagents, 167 (0.63%) are marked active. 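Calls are per gene from RSA p-values that are not deposited; an individual active-marked siRNA can sensitise only weakly.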 Entries without a mark were called inactive. The numbers tell different reagents against one gene apart. Further read-outs or replicates are left out here."}
{"gene":"ATN1 (atrophin 1)","reagent no.":1,"log2 vehicle/camptothecin viability":-0.118}
{"gene":"ATN1 (atrophin 1)","reagent no.":2,"log2 vehicle/camptothecin viability":0.148}
{"gene":"ATN1 (atrophin 1)","reagent no.":3,"log2 vehicle/camptothecin viability":-0.298}
{"gene":"APLNR (apelin receptor)","reagent no.":1,"log2 vehicle/camptothecin viability":-0.0137}
{"gene":"APLNR (apelin receptor)","reagent no.":2,"log2 vehicle/camptothecin viability":-0.42}
{"gene":"APLNR (apelin receptor)","reagent no.":3,"log2 vehicle/camptothecin viability":-0.427}
{"gene":"APLNR (apelin receptor)","reagent no.":4,"log2 vehicle/camptothecin viability":0.469}
{"gene":"ERMAP","reagent no.":1,"log2 vehicle/camptothecin viability":-0.574}
{"gene":"ERMAP","reagent no.":2,"log2 vehicle/camptothecin viability":-0.249}
{"gene":"ERMAP","reagent no.":3,"log2 vehicle/camptothecin viability":-0.179}
{"gene":"ERMAP","reagent no.":4,"log2 vehicle/camptothecin viability":-0.733}
{"gene":"MLLT1 (MLLT1 super elongation complex subunit)","reagent no.":1,"log2 vehicle/camptothecin viability":1.11}
{"gene":"MLLT1 (MLLT1 super elongation complex subunit)","reagent no.":2,"log2 vehicle/camptothecin viability":-0.0437}
{"gene":"MLLT1 (MLLT1 super elongation complex subunit)","reagent no.":3,"log2 vehicle/camptothecin viability":-0.283}
{"gene":"MLLT1 (MLLT1 super elongation complex subunit)","reagent no.":4,"log2 vehicle/camptothecin viability":-0.104}
{"gene":"PRPSAP2 (phosphoribosyl pyrophosphate synthetase associated protein 2)","reagent no.":1,"log2 vehicle/camptothecin viability":0.0472}
{"gene":"PRPSAP2 (phosphoribosyl pyrophosphate synthetase associated protein 2)","reagent no.":2,"log2 vehicle/camptothecin viability":-0.359}
{"gene":"PRPSAP2 (phosphoribosyl pyrophosphate synthetase associated protein 2)","reagent no.":3,"log2 vehicle/camptothecin viability":0.0605}
{"gene":"PCCB (propionyl-CoA carboxylase subunit beta)","reagent no.":1,"log2 vehicle/camptothecin viability":-0.211}
{"gene":"PCCB (propionyl-CoA carboxylase subunit beta)","reagent no.":2,"log2 vehicle/camptothecin viability":0.105}
{"gene":"PCCB (propionyl-CoA carboxylase subunit beta)","reagent no.":3,"log2 vehicle/camptothecin viability":-0.454}
{"gene":"PCCB (propionyl-CoA carboxylase subunit beta)","reagent no.":4,"log2 vehicle/camptothecin viability":-0.131}

7 entries from above, reformatted:
PRPSAP2 (phosphoribosyl pyrophosphate synthetase associated protein 2) #1
- log2 vehicle/camptothecin viability: 0.0472

PRPSAP2 (phosphoribosyl pyrophosphate synthetase associated protein 2) #2
- log2 vehicle/camptothecin viability: -0.359

PRPSAP2 (phosphoribosyl pyrophosphate synthetase associated protein 2) #3
- log2 vehicle/camptothecin viability: 0.0605

PCCB (propionyl-CoA carboxylase subunit beta) #1
- log2 vehicle/camptothecin viability: -0.211

PCCB (propionyl-CoA carboxylase subunit beta) #2
- log2 vehicle/camptothecin viability: 0.105

PCCB (propionyl-CoA carboxylase subunit beta) #3
- log2 vehicle/camptothecin viability: -0.454

PCCB (propionyl-CoA carboxylase subunit beta) #4
- log2 vehicle/camptothecin viability: -0.131

The list goes on.
{"gene":"SLC6A13","reagent no.":1,"log2 vehicle/camptothecin viability":0.318}
{"gene":"SLC6A13","reagent no.":2,"log2 vehicle/camptothecin viability":-0.381}
{"gene":"SLC6A13","reagent no.":3,"log2 vehicle/camptothecin viability":0.304}
{"gene":"SLC6A13","reagent no.":4,"log2 vehicle/camptothecin viability":-0.193}
{"gene":"ERBB4 (erb-b2 receptor tyrosine kinase 4)","reagent no.":1,"log2 vehicle/camptothecin viability":0.537}
{"gene":"ERBB4 (erb-b2 receptor tyrosine kinase 4)","reagent no.":2,"log2 vehicle/camptothecin viability":0.451}
{"gene":"ERBB4 (erb-b2 receptor tyrosine kinase 4)","reagent no.":3,"log2 vehicle/camptothecin viability":-0.343}
{"gene":"ERBB4 (erb-b2 receptor tyrosine kinase 4)","reagent no.":4,"log2 vehicle/camptothecin viability":-0.281}
{"gene":"ADRA2B (adrenoceptor alpha 2B)","reagent no.":1,"log2 vehicle/camptothecin viability":-0.384}
{"gene":"ADRA2B (adrenoceptor alpha 2B)","reagent no.":2,"log2 vehicle/camptothecin viability":-0.2}
{"gene":"ADRA2B (adrenoceptor alpha 2B)","reagent no.":3,"log2 vehicle/camptothecin viability":0.0514}
{"gene":"ADRA2B (adrenoceptor alpha 2B)","reagent no.":4,"log2 vehicle/camptothecin viability":0.0679}
{"gene":"RNF115 (ring finger protein 115)","reagent no.":1,"log2 vehicle/camptothecin viability":-0.021}
{"gene":"RNF115 (ring finger protein 115)","reagent no.":2,"log2 vehicle/camptothecin viability":0.193}
{"gene":"RNF115 (ring finger protein 115)","reagent no.":3,"log2 vehicle/camptothecin viability":-0.0209}
{"gene":"RNF115 (ring finger protein 115)","reagent no.":4,"log2 vehicle/camptothecin viability":0.484}
{"gene":"GABRB3 (gamma-aminobutyric acid type A receptor subunit beta3)","reagent no.":1,"log2 vehicle/camptothecin viability":-0.475}
{"gene":"GABRB3 (gamma-aminobutyric acid type A receptor subunit beta3)","reagent no.":2,"log2 vehicle/camptothecin viability":0.139}
{"gene":"GABRB3 (gamma-aminobutyric acid type A receptor subunit beta3)","reagent no.":3,"log2 vehicle/camptothecin viability":-0.487}
{"gene":"GABRB3 (gamma-aminobutyric acid type A receptor subunit beta3)","reagent no.":4,"log2 vehicle/camptothecin viability":0.139}
{"gene":"TACR2 (tachykinin receptor 2)","reagent no.":1,"log2 vehicle/camptothecin viability":-0.315}
{"gene":"TACR2 (tachykinin receptor 2)","reagent no.":2,"log2 vehicle/camptothecin viability":-0.708}
{"gene":"TACR2 (tachykinin receptor 2)","reagent no.":3,"log2 vehicle/camptothecin viability":0.65}
{"gene":"TACR2 (tachykinin receptor 2)","reagent no.":4,"log2 vehicle/camptothecin viability":-0.275}
